Measurements reported in PubChem BioAssay AID1053209 (Peter MacCallum Cancer Centre, 2014).

Purpose: 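Knock-downs that sensitise mouse osteosarcoma cells to doxorubicin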 (follow-up of hits)
System: mouse primary osteosarcoma cells
Reagents: single siRNA against mouse genes, 25 nM (text also states 40 nM)
Timing: about 120 h (48 h before drug, then 72 h with drug)
Conditions: doxorubicin 100 nM (about IC30-40), added 48 h after transfection, for 72 h
Detection: 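Viability measured by ATP luminescence with and without doxorubicin, each replicate scaled to non-targeting siRNA NT1, averaged over two replicates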
Scale: viability with doxorubicin, vs NT1: higher = more viable cells under doxorubicin; viability without drug, vs NT1: higher = more viable cells without drug
Rule for the call: 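Active when doxorubicin viability is at most 0.7 of NT1 and drug-free viability lies between 0.7 and 1.1, class LC dox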
In all, the deposit lists about 1,580 reagents; shown is a part drawn at random. 207 of all reagents (13%) count as active. 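Rows are single siRNAs; four siRNAs per gene were tested, a gene counting as confirmed only when at least two agree.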 Reagents against one gene are numbered here. Not all columns of the deposit are shown.

With knock-down of Snrpa #1, the screen gave combined effect class normal viability with and without drug; viability with doxorubicin, vs NT1 = 0.96; viability without drug, vs NT1 = 0.97; inactive. Snrpa #2 showed combined effect class normal viability with and without drug; viability with doxorubicin, vs NT1 = 0.94; viability without drug, vs NT1 = 0.88; inactive. Snrpa #3 gave combined effect class normal viability with and without drug; viability with doxorubicin, vs NT1 = 0.76; viability without drug, vs NT1 = 0.96; inactive. Snrpa #4 scored combined effect class normal viability with and without drug; viability with doxorubicin, vs NT1 = 0.9; viability without drug, vs NT1 = 0.96; inactive. For Rrm2 #1, the entry reads combined effect class low viability with and without drug; viability with doxorubicin, vs NT1 = 0.29; viability without drug, vs NT1 = 0.66; inactive. Against Rrm2 #2, the entry reads combined effect class low viability with and without drug; viability with doxorubicin, vs NT1 = 0.17; viability without drug, vs NT1 = 0.5; inactive.

Against Rrm2 #3, the entry reads combined effect class low viability only with doxorubicin; normal without drug; viability with doxorubicin, vs NT1 = 0.26; viability without drug, vs NT1 = 0.74; active. Rrm2 #4 scored combined effect class low viability with and without drug; viability with doxorubicin, vs NT1 = 0.12; viability without drug, vs NT1 = 0.51; inactive. Depletion of Zfp184 #1 gave: combined effect class normal viability with and without drug; viability with doxorubicin, vs NT1 = 0.96; viability without drug, vs NT1 = 0.96; inactive. Against Zfp184 #2, the values are combined effect class high viability only with doxorubicin; viability with doxorubicin, vs NT1 = 1.12; viability without drug, vs NT1 = 1.01; inactive. Depletion of Zfp184 #3 gave: combined effect class high viability only with doxorubicin; viability with doxorubicin, vs NT1 = 1.17; viability without drug, vs NT1 = 1.09; inactive. Against Zfp184 #4 the deposit lists combined effect class normal viability with and without drug; viability with doxorubicin, vs NT1 = 0.93; viability without drug, vs NT1 = 1.01; inactive.

Rbm17 #1 showed combined effect class normal viability with and without drug; viability with doxorubicin, vs NT1 = 0.95; viability without drug, vs NT1 = 0.98; inactive. Against Rbm17 #2, the entry reads combined effect class normal viability with and without drug; viability with doxorubicin, vs NT1 = 1; viability without drug, vs NT1 = 0.92; inactive. Rbm17 #3 scored combined effect class normal viability with and without drug; viability with doxorubicin, vs NT1 = 1.03; viability without drug, vs NT1 = 1; inactive. Knock-down of Rbm17 #4 came out at: combined effect class normal viability with and without drug; viability with doxorubicin, vs NT1 = 0.84; viability without drug, vs NT1 = 0.94; inactive.

A stretch of the results above, for reference:
Rrm2 #2 → combined effect class = low viability with and without drug; viability with doxorubicin, vs NT1 = 0.17; viability without drug, vs NT1 = 0.5; outcome = inactive
Rrm2 #3 → combined effect class = low viability only with doxorubicin; normal without drug; viability with doxorubicin, vs NT1 = 0.26; viability without drug, vs NT1 = 0.74; outcome = active
Rrm2 #4 → combined effect class = low viability with and without drug; viability with doxorubicin, vs NT1 = 0.12; viability without drug, vs NT1 = 0.51; outcome = inactive

The list goes on.
Against Pno1 #1, the values are combined effect class low viability only without drug; viability with doxorubicin, vs NT1 = 0.92; viability without drug, vs NT1 = 0.68; inactive. Pno1 #2 gave combined effect class low viability only with doxorubicin; normal without drug; viability with doxorubicin, vs NT1 = 0.6; viability without drug, vs NT1 = 0.74; active. Against Pno1 #3 the deposit lists combined effect class low viability with and without drug; viability with doxorubicin, vs NT1 = 0.6; viability without drug, vs NT1 = 0.67; inactive. Against Pno1 #4, the values are combined effect class low viability with and without drug; viability with doxorubicin, vs NT1 = 0.65; viability without drug, vs NT1 = 0.59; inactive. Eif3i #1 showed combined effect class low viability with and without drug; viability with doxorubicin, vs NT1 = 0.45; viability without drug, vs NT1 = 0.46; inactive. Eif3i #2 scored combined effect class low viability with and without drug; viability with doxorubicin, vs NT1 = 0.29; viability without drug, vs NT1 = 0.29; inactive.

After knock-down of Eif3i #3 the results were combined effect class normal viability with and without drug; viability with doxorubicin, vs NT1 = 0.9; viability without drug, vs NT1 = 0.91; inactive. Eif3i #4 scored combined effect class low viability with and without drug; viability with doxorubicin, vs NT1 = 0.44; viability without drug, vs NT1 = 0.56; inactive.
